# For at least one entry, the source does not settle the construct or the ends of the probe.
# Test system: cytochrome c
# Assay: optical microfiber interferometric aptasensor (wavelength shift, AFM)
# Conditions: aptamer immobilized on Ag@RGO nanointerface, sensor LOD 6.82e-17 M (not a Kd); 5'-SH (thiol); Optical microfiber in microchannel chip; Tris buffer pH 7.4 listed as reagent; commercial protein; single-stranded DNA
sequence,measurement,value
CCCTGTCTGGGGCCGACCGGCGCATTGGGTACGTTGTTGC [cyt c ssDNA aptamer],binding result,binds

# — PMC6096990
